## Percent effect of library compounds

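Whole-parasite assay of Trypanosoma brucei over 72 hours; the read-out is not stated. Concentration: 30 µM. The record gives no direction; compounds that gave an IC50 in retests scored well above the rest, so higher reads as stronger inhibition. Values scatter widely below zero; nearly all retest evidence comes from the higher of the two concentrations used. About 64,000 compounds were tested under these conditions; 1.5% (about 940) showed 50% or more at least once.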

The filed quantity is “Percent Effect” (%). How 0% and 100% were set is not recorded. Most values in the screen are low, and negative values occur. This is an unselected part of the compounds tested.

| # | structure | percent effect |
|---|---|---|
| 1 | `CC(=O)N[C@@H]1CN(C(=O)c2cc(C)oc2C)C[C@H]1c1ccc(C)o1` | -10.07 |
| 2 | `O=C(NCCc1ccccc1)NCC(O)c1cccc(F)c1` (stereo not shown) | -1.202 |
| 3 | `CCN1N=C(C(=O)N2CCCC(c3nc(C)c(C)s3)C2)CCC1=O` (stereo not shown) | -8.075 |
| 4 | `Cc1nsc(C(=O)NCCc2ccc(F)cc2)n1` | -6.684 |
| 5 | `CCNc1nc(C)c(C(=O)N(C)Cc2noc(C)n2)s1` | -42.9 |
| 6 | `CCNC(=O)CN1CCOC(c2ccccc2C(F)(F)F)C1` (stereo not shown) | 2.649 |
| 7 | `Cc1ccc([C@H]2CN(C(=O)CC3CCC3)C[C@@H]2N)o1` | -2.972 |
| 8 | `CCc1ccsc1C(=O)NC(C#N)CC(C)C` (stereo not shown) | -23.66 |
| 9 | `CC(=O)N1CC2(CCN(C(=O)C3CC3)CC2)c2cc(C)ccc21` | -8.568 |
| 10 | `NC(=O)c1ccc(N2CCN(Cc3ccc(F)cc3Cl)CC2)nn1` | -33.4 |
| 11 | `Cc1cc(NCC2CC(=O)Nc3ccccc32)nc(C)n1` (stereo not shown) | -4.89 |
| 12 | `CC(C)=CCC1(C(=O)O)CCCN(CCC(=O)NC2CC2)C1` (stereo not shown) | -18.32 |
| 13 | `CNC(=O)c1ccc(C(=O)N2CCCCC2Cn2cc(C)cn2)cn1` (stereo not shown) | -1.482 |
| 14 | `CN1CCCCC1CCC(=O)NCCCn1ncc2ccccc21` (stereo not shown) | 10.95 |
| 15 | `COc1ccc(C(=O)NCC(=O)N(Cc2ccsc2)C2CC2)cc1OC` | -63.6 |
| 16 | `Br.Cc1cc(C)c(N(CC(O)CNCc2ccccc2)S(C)(=O)=O)c(C)c1` (stereo not shown) | 21.72 |
| 17 | `CNCCc1nc2cc(Cl)ccc2[nH]1.Cl.Cl` | -12.48 |
| 18 | `NC(=O)COc1cccc(C(=O)NCc2ccc(Cl)s2)c1` | -14 |
| 19 | `OCC1CN(Cc2nc(C(F)(F)F)cs2)c2ccccc2O1` (stereo not shown) | -36.38 |
| 20 | `CN(Cc1cc(Br)cn1C)C(=O)Cc1cccc(O)c1` | -57.62 |
| 21 | `CCC[C@H]1CN(CCS(C)(=O)=O)C[C@@H]1NC(=O)c1ccccc1F` | -12.86 |
| 22 | `[H][C@@]12CS(=O)(=O)C[C@]1([H])N(Cc1ccc(C)c(C)c1)CCN2CC(=O)N(C)C` | 8.241 |
| 23 | `CCN1CCC(CNCc2c[nH]nc2C(C)(C)C)C1.Cl` (stereo not shown) | -10.19 |
| 24 | `Cc1cc(-c2ccc(=O)n(CCNC(=O)C3CCC3)n2)c(C)o1` | -40.93 |
| 25 | `O=C(Nc1ccc(S(=O)(=O)Nc2c(F)cccc2F)cc1)N1CCCC1` | -3.753 |
| 26 | `COCC1CCN(C(=O)c2cn(Cc3ccccc3C(F)(F)F)nn2)C1` (stereo not shown) | -10.36 |
| 27 | `CNC(=O)CN1C(=O)CCC12CCCN(Cc1cccc(F)c1)C2.O=C(O)C(F)(F)F.O=C(O)C(F)(F)F` (stereo not shown) | -18.31 |
| 28 | `CC(=O)N1CCN(c2nc(C(F)(F)F)nc3sc(C)c(C)c23)CC1` | 21.19 |
| 29 | `CCn1c(CN(C)C)nnc1C1CCN(Cc2ccccc2)CC1` | 8.021 |
| 30 | `CC/C=C(/C)C(=O)NCCc1csc(N2CCCC2)n1` | 27.91 |
| 31 | `CCOc1cc(NC(=O)N(C)Cc2ncnn2C)ccc1C` | -20.96 |
| 32 | `CCS(=O)(=O)N1CCc2ccc(NC(=O)Nc3ccc(F)cc3F)cc21` | 41.52 |
| 33 | `Cc1noc(NC(=O)c2ccc(C)c(F)c2)n1` | 65.47 |
| 34 | `Cc1ccc(CN2CCC(O)(Cn3ccc4ncccc43)CC2)o1.Cl` | 5.276 |
| 35 | `O=S(=O)(c1ccccc1)N1CC[C@]2(C[C@@H](OCC3CC3)CO2)C1` | 26.29 |
| 36 | `Cc1cn2c(n1)C(CNCc1cccc3c1OCO3)CCC2` (stereo not shown) | 8.746 |
| 37 | `Cc1cnc(C(=O)N2CCCC(n3cncn3)C2)cn1` (stereo not shown) | 9.088 |
| 38 | `CN(CCc1ncnn1C1Cc2ccccc2C1)C1CCS(=O)(=O)C1` (stereo not shown) | -48.41 |
| 39 | `Cc1cc(NC(=O)c2ccc(CN3CC[C@H](O)C3)cc2)ccc1F` | 41.32 |
| 40 | `CC(C)C1SCC(=O)Nc2c1cnn2C(C)C` (stereo not shown) | -36.39 |
| 41 | `Cc1oc(-c2ccc(Cl)cc2)nc1C(=O)NC1=NCCS1` | -56.59 |
| 42 | `CCN(Cc1nc(C)no1)C(=O)C1CC(=O)N(Cc2ccccn2)C1` (stereo not shown) | -34.01 |
| 43 | `CC(NC(=O)c1ccnn1C)c1ccc(OCC2CC2)c(F)c1` (stereo not shown) | -5.486 |
| 44 | `c1cc(-c2c[nH]c([C@@H]3COCCN3Cc3ncc[nH]3)n2)ccn1` | 7.351 |
| 45 | `Cc1cnc(N2CCC3(CCC(C(=O)NC(C)C)OC3)CC2)nc1` (stereo not shown) | -32.86 |
| 46 | `c1cc(CNCc2ccnc(N3CCOCC3)c2)c2c(c1)OCCCO2` | -9.593 |
| 47 | `CN1CCC(Nc2cc(Cl)ccc2OCC(F)(F)F)C1=O` (stereo not shown) | -10.31 |
| 48 | `Cc1ccc(Oc2c(F)cccc2OC[C@@H](N)CC(C)C)cc1` | 99.61 |
| 49 | `Cc1cc(Cl)ccc1C(=O)C1CCCN(Cc2cnc(N(C)C)s2)C1` (stereo not shown) | -46.64 |
| 50 | `CC1c2ncc(Cn3cncn3)n2CCN1C(=O)N(C)C` (stereo not shown) | -7.795 |
| 51 | `CCOCCC(=O)N1CCCC(c2ncc[nH]2)C1` (stereo not shown) | -62.99 |
| 52 | `CCN(Cc1nonc1C)C(=O)Cn1nc(C(F)(F)F)cc1C1CC1` | 9.74 |
| 53 | `Cc1cccc(Nc2nccnc2C2CCCN2CC(N)=O)n1` (stereo not shown) | -25.07 |
| 54 | `CCOc1ccccc1CCNC(=O)NCC(O)c1cccs1` (stereo not shown) | -56.81 |
| 55 | `O=C(c1ccc(C2CCCN2)s1)N1CCN2CCC1CC2` (stereo not shown) | -20.78 |
| 56 | `CN(Cc1nc(Cc2cccc(C(F)(F)F)c2)no1)C(C1CC1)C1CC1` | 23.58 |
| 57 | `COCCN1CCC1c1cc(NC2CCCC2)nc(C)n1` (stereo not shown) | -9.468 |
| 58 | `Cc1cc(C(F)(F)F)nn1C(C)C(=O)NN1CCOCC1` (stereo not shown) | -10.29 |
| 59 | `[H][C@]12CCN(C(=O)NC3CCCC3)CC[C@@]1([H])S(=O)(=O)N(CC)C2` | -64.81 |
| 60 | `CO[C@@]1(C)C[C@@H](O)C12CCN(C(=O)C1(c3ccccc3F)CC1)CC2` | 14.18 |
| 61 | `O=C(NCCNc1ncccn1)C1CCN(CC(F)(F)F)CC1` | -32.74 |
| 62 | `CNc1cccc(C2CCCN(C(=O)c3ccncc3)C2)n1` (stereo not shown) | 19.96 |
| 63 | `Cc1ccc2c(c1)CN(C(=O)C1CCCCC1)C(CN(C)C)CO2.Cl` (stereo not shown) | 45.68 |
| 64 | `CCC1CN(C(=O)c2ccc(=O)[nH]c2)CCC(=O)N1Cc1ccccc1` (stereo not shown) | -32.06 |
| 65 | `Cc1noc(C)c1CNS(=O)(=O)N(C)Cc1ccccc1Br` | -3.311 |
| 66 | `COC(=O)[C@@H](NC(=O)Nc1ccc(C(C)=O)cc1)C(C)C` | -48.34 |
| 67 | `CCc1cc(C(=O)NCC2CCN(Cc3ccncc3)CC2)on1` | 0.6416 |
| 68 | `O=C(CCNc1ncccn1)N1CCCC(n2cccn2)C1` (stereo not shown) | -21.22 |
| 69 | `Cc1nc(C)c2c(n1)CCN(Cc1ccco1)CC2` | -60.21 |
| 70 | `O=C(c1ccco1)N1CCC2(CCC(=O)N2Cc2ccncc2)CC1` | -15.87 |
| 71 | `Cc1ccc(CC(=O)N2CCOC(c3ncc(CN(C)C)[nH]3)C2)s1` (stereo not shown) | -12.36 |
| 72 | `Cc1cc(CC(C)Nc2ncc(C)c(N(C)C)n2)[nH]n1` (stereo not shown) | 8.777 |

5 of the entries, repeated:

- O=C(c1ccc(C2CCCN2)s1)N1CCN2CCC1CC2 (stereo not shown) | -20.78%
- COCC1CCN(C(=O)c2cn(Cc3ccccc3C(F)(F)F)nn2)C1 (stereo not shown) | -10.36%
- Cc1nsc(C(=O)NCCc2ccc(F)cc2)n1 | -6.684%
- CCNC(=O)CN1CCOC(c2ccccc2C(F)(F)F)C1 (stereo not shown) | 2.649%
- CCOc1cc(NC(=O)N(C)Cc2ncnn2C)ccc1C | -20.96%

Data taken from ChEMBL document CHEMBL3988442, “University of Dundee, Small-Polar-MMV Screening Library” (2021).